Measurements reported in US5286492A, “Method of treatment of Heliobacter pylori infections with triclosan” (Reckitt & Colman Products Limited, priority 1990, dated 1994).

Tested on: Helicobacter pylori
Experiment: MIC50/MIC90 versus Helicobacter pylori by agar dilution technique at neutral pH
Assay type: cell-based
Procedure: The in vitro activities of a range of antimicrobial compounds versus Helicobacter pylori were determined by methods based on those of McNulty et al (Antimicrobial Agents and Chemotherapy, 28, 837-838, 1985). The Minimum Inhibitory concentrations for 50% and 90% of the strains used (MIC50 and MIC90), versus each antimicrobial were determined using an agar dilution technique.
The MIC of an antimicrobial agent was defined as that concentration (in mg per liter of agar) at which less than 1 in 10^5 organisms produced visible colonies.
Helicobacter pylori strains were isolated from gastric antrum biopsy specimens taken at routine endoscopy during investigation of upper gastrointestinal symptoms. They were identified as Helicobacter pylori by their colonial morphology, gram stain appearance and positive rapid urease test. The organisms were stored in liquid nitrogen before use and subcultured for testing by 48 hour incubation, at 37° C. under 10% carbon dioxide in Tryptone Soya Broth (TSB, OXOID, UK) plus 5% horse serum (Tissue Culture Services, UK).
The first test procedure determined the effectiveness of a range of antimicrobial substances versus 16 to 18 strains of Helicobacter pylori at neutral pH. Freshly prepared Isosensitest Agar of pH 7.2 (Oxoid, UK) supplemented with 10% saponinlysed horse blood was used to prepare a dilution series of each antimicrobial from which agar plates were produced. A multipoint inoculator (Denley-Tech, UK) was used to deliver 1 µl of undiluted test culture to the surface of each plate in the dilution series to give approximately 10^6 cfu/spot. The plates were incubated for three days at 37° C. in a microaerobic atmosphere of 6% oxygen and 10% carbon dioxide.
Table 1 presents test data for the twelve selected antimicrobial agents tested against Helicobacter pylori at neutral pH.

CCCCCCCCCCCCCCCC[n+]1ccccc1 [Cetyl pyridinium Cl]
8 µg/mL: MIC50 (72 h, pH 7.2) | MIC90 (pH 7.2) | MIC (pH 7.2, read-out: MIC Range)
